{"sequences": {"note": "The chains behind the UniProt entries cited, without tags or fusion partners. Where a name states a change or a piece, a line headed by the entry shows the natural chain unless it says otherwise.", "UniProt Q04609": "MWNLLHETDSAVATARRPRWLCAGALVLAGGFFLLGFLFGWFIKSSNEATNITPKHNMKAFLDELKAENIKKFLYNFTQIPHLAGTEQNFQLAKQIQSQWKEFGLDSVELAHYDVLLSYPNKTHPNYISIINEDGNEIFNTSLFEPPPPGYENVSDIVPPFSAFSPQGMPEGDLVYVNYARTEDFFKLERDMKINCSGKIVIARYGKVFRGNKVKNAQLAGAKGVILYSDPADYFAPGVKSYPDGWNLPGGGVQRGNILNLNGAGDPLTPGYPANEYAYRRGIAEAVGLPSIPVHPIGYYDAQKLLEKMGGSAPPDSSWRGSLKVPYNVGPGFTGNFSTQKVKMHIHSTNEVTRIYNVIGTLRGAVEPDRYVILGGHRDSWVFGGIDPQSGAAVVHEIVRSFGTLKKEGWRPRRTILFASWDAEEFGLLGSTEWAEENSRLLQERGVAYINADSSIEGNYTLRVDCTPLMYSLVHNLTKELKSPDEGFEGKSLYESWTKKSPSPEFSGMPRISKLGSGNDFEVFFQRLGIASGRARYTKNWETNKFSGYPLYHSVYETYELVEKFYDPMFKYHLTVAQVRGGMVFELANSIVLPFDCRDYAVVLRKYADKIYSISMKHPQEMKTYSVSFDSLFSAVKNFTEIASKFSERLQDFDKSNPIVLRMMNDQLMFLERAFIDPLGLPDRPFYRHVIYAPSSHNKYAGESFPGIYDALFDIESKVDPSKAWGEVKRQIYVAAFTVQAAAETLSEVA"}, "source": "patent US20100261781", "key": {"[1]": {"target": "PSMA (prostate specific membrane antigen) on C4-2 and LNCaP cells (UniProt Q04609)", "assay": "binding assay", "details": "fluorescence microscopy, protein on the cell surface, single-stranded DNA"}, "[2]": {"target": "PSMA (prostate specific membrane antigen) on C4-2 and LNCaP cells (UniProt Q04609)", "assay": "flow cytometry", "details": "protein on the cell surface, label: Quasar 670 (dA16 strand), Quasar 570 (dT16 strand), folded or branched DNA"}, "[3]": {"target": "PSMA (prostate specific membrane antigen) extracellular domain (UniProt Q04609)", "assay": "SELEX", "details": "9 of 10 clones of second SELEX; 37 C; purified recombinant protein; label: Rhodamine or Quasar 570; single-stranded DNA"}, "[4]": {"target": "PSMA (prostate specific membrane antigen) on PSMA-transduced PC3 cells (UniProt Q04609)", "assay": "binding assay", "details": "confocal microscopy; surface binding at 4 C, internalized at 37 C; no binding to PSMA- PC3 cells; presence of alkyl linker not stated; protein on the cell surface; label: Quasar 670 (dA16 strand), Quasar 570 (dT16 strand); folded or branched DNA; variant of PSMA01"}}, "note": "For part of these data: Where cells or extracts were used, other partners may take part. For part of these data: For at least one entry, the source does not settle the construct or the ends of the probe."}
{"sequence": "GCGTTTTCGCTTTTGCGTTTTGGGTCATCTGCTTACGATAGCAATCGTTTTTTTTTTTTTTTTT [PSMA01-dT16 monomer]", "values": [{"measurement": "binding result", "setting": "[1]; live C4-2 cells, less surface binding than dimer, label: Quasar 570, variant of PSMA01", "value": "binds"}]}
{"sequence": "GCGTTTTCGCTTTTGCGTTTTGGGTCATCTGCTTACGATAGCAATCGTAAAAAAAAAAAAAAAA / GCGTTTTCGCTTTTGCGTTTTGGGTCATCTGCTTACGATAGCAATCGTTTTTTTTTTTTTTTTT [PSMA01 dimeric aptamer complex with alkyl linkers]", "values": [{"measurement": "binding result", "setting": "[2]; one alkyl spacer between PSMA01 and each tail", "value": "binds"}]}
{"sequence": "GCGTTTTCGCTTTTGCGTTTTGGGTCATCTGCTTACGATAGCAATCGT [PSMA01]", "values": [{"measurement": "selection result", "setting": "[3]", "value": "selected"}, {"measurement": "binding result", "setting": "[1]; live C4-2 and LNCaP cells, 1 uM, PBS, 2 h RT, no binding to PSMA- PC3 cells, no significant internalization, label: Rhodamine or Quasar 570", "value": "binds"}]}
{"sequence": "GCGTTTTCGCTTTTGCGTTTTGGGTCATCTGCTTACGATAGCAATCGTAAAAAAAAAAAAAAAA / GCGTTTTCGCTTTTGCGTTTTGGGTCATCTGCTTACGATAGCAATCGTTTTTTTTTTTTTTTTT [PSMA01 dimeric aptamer complex (dA16/dT16)]", "values": [{"measurement": "binding result", "setting": "[4]", "value": "binds"}, {"measurement": "binding result", "setting": "[2]; C4-2 cells, greater binding and internalization than monomer, variant of PSMA01", "value": "binds"}]}
